# For some assays here: The name of at least one read-out is uncertain. Some entries share one result that the patent states for a list of compounds.
# What was measured:
# caspase-3 = target: T1, caspase-3 (Homo sapiens, UniProt P42574); test: Screening on caspases inhibiting activity (recombinant enzyme, fluorogenic AMC substrate); assay type: biochemical; conditions: Reversible Inhibitor; read-out: Kobs/[I] for caspase-3
# T1 construct: made in house
# T1 sequence (P42574 29-175 limits assumed): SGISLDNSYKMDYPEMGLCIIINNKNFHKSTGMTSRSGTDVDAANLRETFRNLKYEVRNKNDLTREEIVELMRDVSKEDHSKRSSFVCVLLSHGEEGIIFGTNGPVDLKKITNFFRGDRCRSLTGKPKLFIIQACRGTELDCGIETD
# T1 sequence (P42574 176-277 limits assumed): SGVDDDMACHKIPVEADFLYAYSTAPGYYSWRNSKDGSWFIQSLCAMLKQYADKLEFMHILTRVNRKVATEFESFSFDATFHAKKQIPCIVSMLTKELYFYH
# Experimental: In the present experiment, recombinant caspases were purified from a transformed bacterium after human caspase genes were cloned into the expression vector pET, and then used in the experiment (Thornberry, N.A. et .al. Nature, 1992, 356, 768. Thombeny, N.A. Methods in Enzymology, 1994, 615.).
# Enzymatic activity was measured by a known procedure (Walker N.P.C. et al., Cell 1994, 78, 343). Briefly, 10 ng of recombinant protein was mixed with 50 mM Tris(pH 7.0), 1mM DTT, 0.5 mM EDTA, 10% Glycerol buffer containing 1∼100 µM of enzyme substrate, Ac-YVAD-AMC or Ac-DEVD-AMC and then the changes by isolated AMC at 37°C were recorded. The inhibitory activity for caspases was calculated from the early enzyme reaction rate by measuring the changes with fluorescence excited at […] and emitted at 460 nm (Range; Ki<100nM).
# IL-1β production = target: T2, IL-1β production (Homo sapiens, UniProt P29466); test: IL-1β production in LPS-stimulated peripheral lymphocytes (intracellular caspase-1 inhibition); assay type: cell-based; conditions: compound 2 hours then 10 ng/ml LPS, 12 hours, read-out: CIC50 (IL-1β production)
# T2 sequence (P29466 with tags, fused parts or gaps): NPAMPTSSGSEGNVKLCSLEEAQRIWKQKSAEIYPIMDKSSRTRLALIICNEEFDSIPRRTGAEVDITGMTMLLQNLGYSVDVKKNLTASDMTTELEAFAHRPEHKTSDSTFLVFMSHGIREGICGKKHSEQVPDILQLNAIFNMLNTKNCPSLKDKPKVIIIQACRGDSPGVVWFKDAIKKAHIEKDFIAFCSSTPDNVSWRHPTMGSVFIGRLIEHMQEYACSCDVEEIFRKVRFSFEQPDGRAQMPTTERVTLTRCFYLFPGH
substance,measurement,setting,value
"(3S)-3-{3-[(1S)-1-(quinoline-2-yl-carbonylamino)-2-methyl-propyl]-5-phenox ymethyl-4,5-dihydro-isoxazole-5-carbonylamino}-4-keto-pentanoic acid [Compound 22mp]",Ki,caspase-3,19.2 µM
same,IC50,IL-1β production,0.1 to 10 µM

# From EP1212309B1, “CASPASE INHIBITOR” (LG Chem Investment, Ltd., priority 1999, dated 2001)
